Results are given in words; binding and its absence hold for the method and conditions named.
Tests used:
[1] = substrate: T1, P element-induced wimpy testis protein (Piwi) (Drosophila) (UniProt Q9VKM1); assay: two-hybrid; yeast interaction-mating, strains PJ69-4a and PJ69-4alpha; diploids replica-plated on -W -L -A or -W -L -H + 30 mM 3AT; growth scored after 6 days at 30°C; Cbp80 tested in the BD and in the AD vector with Piwi
T1 sequence: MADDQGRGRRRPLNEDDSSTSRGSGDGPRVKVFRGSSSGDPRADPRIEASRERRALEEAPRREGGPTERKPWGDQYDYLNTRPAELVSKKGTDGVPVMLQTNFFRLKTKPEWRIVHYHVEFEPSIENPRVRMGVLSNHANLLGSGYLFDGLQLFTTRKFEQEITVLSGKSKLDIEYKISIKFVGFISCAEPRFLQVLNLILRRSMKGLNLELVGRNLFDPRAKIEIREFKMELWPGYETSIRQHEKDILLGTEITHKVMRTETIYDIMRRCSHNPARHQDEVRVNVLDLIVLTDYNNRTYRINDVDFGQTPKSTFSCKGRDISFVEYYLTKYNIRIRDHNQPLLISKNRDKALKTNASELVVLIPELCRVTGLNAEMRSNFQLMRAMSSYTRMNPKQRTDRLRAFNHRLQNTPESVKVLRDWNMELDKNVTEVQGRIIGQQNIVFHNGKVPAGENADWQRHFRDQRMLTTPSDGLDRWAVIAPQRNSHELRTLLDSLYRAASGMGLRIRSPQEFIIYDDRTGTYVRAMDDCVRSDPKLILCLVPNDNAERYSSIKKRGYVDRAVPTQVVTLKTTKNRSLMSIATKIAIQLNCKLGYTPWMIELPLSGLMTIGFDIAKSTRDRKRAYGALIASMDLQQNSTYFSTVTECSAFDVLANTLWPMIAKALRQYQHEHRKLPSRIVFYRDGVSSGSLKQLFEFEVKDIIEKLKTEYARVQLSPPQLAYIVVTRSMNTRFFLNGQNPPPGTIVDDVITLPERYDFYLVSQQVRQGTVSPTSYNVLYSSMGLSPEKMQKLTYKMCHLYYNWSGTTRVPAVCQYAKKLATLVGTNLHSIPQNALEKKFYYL

[2] = biological target: T2, Cap binding protein 80 (Cbp80) (Drosophila) (UniProt Q7K4N3); assay: as above
T2 sequence: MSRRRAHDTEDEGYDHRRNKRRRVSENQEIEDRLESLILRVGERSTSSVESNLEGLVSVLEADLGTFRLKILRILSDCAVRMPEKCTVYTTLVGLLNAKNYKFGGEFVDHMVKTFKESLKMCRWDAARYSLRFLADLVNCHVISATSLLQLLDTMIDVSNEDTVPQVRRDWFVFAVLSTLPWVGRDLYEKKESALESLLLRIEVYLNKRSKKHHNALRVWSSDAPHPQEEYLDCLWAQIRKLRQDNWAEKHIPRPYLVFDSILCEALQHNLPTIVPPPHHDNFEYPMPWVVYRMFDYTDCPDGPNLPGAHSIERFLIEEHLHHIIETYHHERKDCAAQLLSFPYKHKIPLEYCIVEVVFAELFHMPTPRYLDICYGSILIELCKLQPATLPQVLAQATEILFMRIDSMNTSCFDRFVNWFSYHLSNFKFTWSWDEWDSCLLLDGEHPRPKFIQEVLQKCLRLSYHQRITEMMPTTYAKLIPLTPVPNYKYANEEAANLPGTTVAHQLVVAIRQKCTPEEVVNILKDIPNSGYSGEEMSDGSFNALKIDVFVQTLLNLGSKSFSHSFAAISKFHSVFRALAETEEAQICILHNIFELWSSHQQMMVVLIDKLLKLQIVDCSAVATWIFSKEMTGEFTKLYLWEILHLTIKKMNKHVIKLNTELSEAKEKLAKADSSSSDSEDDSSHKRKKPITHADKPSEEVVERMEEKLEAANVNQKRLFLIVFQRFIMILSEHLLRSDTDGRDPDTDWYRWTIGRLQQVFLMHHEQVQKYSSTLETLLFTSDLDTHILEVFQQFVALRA

B1: Cap binding protein 80 (Cbp80) (protein, UniProt Q7K4N3 1-800)
chain: T2 sequence
[1]
  binding: no binding

B2: P element-induced wimpy testis protein (Piwi) (protein, UniProt Q9VKM1 1-843)
chain: T1 sequence
[2]
  binding: no binding

— paper PMC5528831
